Results: the supplement of paper PMC6411743
± gives the standard deviation of the averaged measurements. Only a part is listed here, and it is no random draw. Most entries show no effect beyond the scatter of the controls.

The chains behind the UniProt entries cited, without tags or fusion partners. Where a name states a change or a piece, a line headed by the entry shows the natural chain unless it says otherwise.
UniProt Q9NX24: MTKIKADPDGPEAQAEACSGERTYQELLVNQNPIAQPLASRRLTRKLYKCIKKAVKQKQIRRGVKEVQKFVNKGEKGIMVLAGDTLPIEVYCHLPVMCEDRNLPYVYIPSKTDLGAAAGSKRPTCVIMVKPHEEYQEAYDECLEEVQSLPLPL
UniProt Q9NWR8: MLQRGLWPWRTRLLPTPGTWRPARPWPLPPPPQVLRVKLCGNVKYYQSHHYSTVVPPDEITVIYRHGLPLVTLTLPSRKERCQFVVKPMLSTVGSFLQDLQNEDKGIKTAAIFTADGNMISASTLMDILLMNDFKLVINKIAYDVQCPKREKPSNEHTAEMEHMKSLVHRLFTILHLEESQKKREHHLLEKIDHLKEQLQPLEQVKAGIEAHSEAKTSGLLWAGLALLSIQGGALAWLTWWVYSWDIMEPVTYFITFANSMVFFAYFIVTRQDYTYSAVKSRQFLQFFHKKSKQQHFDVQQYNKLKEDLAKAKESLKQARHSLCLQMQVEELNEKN
UniProt Q9NYZ3: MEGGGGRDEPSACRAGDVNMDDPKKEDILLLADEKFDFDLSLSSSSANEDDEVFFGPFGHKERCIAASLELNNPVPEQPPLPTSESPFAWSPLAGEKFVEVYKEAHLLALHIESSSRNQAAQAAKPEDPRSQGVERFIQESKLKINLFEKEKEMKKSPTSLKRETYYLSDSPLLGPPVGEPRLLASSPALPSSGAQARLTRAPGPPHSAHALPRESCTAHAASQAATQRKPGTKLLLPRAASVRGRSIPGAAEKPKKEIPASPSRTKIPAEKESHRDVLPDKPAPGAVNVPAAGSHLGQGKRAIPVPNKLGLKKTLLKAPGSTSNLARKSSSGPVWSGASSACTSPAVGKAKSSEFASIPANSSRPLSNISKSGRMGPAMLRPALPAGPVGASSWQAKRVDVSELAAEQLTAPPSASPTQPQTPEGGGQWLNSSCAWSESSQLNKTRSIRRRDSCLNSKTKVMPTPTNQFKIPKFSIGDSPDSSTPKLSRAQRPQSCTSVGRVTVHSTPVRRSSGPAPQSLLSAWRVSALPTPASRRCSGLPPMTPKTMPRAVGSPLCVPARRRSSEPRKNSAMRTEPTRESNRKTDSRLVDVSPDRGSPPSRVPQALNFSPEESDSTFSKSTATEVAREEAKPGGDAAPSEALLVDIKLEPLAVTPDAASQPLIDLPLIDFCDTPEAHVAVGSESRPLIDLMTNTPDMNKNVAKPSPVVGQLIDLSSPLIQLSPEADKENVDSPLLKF
UniProt Q9NPA3, whole entry: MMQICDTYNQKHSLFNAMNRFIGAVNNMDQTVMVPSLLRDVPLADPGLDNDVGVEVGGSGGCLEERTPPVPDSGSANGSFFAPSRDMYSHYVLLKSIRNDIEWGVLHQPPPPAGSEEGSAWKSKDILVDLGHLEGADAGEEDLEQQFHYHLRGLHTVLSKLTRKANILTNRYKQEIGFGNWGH
UniProt Q9NQG7: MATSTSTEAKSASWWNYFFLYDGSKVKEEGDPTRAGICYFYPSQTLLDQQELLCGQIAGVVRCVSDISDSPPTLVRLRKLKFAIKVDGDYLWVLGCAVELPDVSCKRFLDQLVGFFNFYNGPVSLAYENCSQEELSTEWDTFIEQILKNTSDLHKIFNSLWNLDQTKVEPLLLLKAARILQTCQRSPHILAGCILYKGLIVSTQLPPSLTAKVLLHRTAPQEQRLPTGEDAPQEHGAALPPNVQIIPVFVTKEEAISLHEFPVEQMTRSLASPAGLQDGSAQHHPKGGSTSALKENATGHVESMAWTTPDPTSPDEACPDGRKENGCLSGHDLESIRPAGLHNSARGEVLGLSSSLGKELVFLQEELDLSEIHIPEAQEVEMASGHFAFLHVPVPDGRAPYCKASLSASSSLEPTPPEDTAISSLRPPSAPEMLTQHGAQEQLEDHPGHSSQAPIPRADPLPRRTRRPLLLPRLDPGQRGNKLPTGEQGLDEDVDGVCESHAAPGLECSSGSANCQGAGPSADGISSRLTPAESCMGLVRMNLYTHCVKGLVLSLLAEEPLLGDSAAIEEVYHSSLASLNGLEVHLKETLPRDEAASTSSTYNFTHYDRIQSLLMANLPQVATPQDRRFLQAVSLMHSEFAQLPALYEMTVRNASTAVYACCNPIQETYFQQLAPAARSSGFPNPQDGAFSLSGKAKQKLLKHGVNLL
UniProt Q9P000, whole entry: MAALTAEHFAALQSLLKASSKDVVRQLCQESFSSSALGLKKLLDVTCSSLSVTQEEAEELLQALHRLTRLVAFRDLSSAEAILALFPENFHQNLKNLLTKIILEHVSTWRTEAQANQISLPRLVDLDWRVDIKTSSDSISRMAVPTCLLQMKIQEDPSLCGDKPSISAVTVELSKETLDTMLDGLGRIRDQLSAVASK
UniProt Q9NX04: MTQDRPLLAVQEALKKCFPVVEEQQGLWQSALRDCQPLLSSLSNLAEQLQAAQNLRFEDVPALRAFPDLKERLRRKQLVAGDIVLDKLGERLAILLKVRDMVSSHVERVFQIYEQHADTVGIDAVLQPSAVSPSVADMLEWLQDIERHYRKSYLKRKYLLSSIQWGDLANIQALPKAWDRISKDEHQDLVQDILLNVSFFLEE
UniProt Q9NRD1: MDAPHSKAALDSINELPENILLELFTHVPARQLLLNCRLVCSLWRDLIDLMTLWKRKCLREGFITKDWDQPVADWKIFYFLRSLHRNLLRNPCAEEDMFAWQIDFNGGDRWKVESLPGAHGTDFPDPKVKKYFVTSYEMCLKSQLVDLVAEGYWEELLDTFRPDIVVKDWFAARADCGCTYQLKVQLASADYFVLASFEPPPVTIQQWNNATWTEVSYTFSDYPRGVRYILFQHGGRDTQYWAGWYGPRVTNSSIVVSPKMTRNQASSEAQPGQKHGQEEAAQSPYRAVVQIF
UniProt Q9NRY4: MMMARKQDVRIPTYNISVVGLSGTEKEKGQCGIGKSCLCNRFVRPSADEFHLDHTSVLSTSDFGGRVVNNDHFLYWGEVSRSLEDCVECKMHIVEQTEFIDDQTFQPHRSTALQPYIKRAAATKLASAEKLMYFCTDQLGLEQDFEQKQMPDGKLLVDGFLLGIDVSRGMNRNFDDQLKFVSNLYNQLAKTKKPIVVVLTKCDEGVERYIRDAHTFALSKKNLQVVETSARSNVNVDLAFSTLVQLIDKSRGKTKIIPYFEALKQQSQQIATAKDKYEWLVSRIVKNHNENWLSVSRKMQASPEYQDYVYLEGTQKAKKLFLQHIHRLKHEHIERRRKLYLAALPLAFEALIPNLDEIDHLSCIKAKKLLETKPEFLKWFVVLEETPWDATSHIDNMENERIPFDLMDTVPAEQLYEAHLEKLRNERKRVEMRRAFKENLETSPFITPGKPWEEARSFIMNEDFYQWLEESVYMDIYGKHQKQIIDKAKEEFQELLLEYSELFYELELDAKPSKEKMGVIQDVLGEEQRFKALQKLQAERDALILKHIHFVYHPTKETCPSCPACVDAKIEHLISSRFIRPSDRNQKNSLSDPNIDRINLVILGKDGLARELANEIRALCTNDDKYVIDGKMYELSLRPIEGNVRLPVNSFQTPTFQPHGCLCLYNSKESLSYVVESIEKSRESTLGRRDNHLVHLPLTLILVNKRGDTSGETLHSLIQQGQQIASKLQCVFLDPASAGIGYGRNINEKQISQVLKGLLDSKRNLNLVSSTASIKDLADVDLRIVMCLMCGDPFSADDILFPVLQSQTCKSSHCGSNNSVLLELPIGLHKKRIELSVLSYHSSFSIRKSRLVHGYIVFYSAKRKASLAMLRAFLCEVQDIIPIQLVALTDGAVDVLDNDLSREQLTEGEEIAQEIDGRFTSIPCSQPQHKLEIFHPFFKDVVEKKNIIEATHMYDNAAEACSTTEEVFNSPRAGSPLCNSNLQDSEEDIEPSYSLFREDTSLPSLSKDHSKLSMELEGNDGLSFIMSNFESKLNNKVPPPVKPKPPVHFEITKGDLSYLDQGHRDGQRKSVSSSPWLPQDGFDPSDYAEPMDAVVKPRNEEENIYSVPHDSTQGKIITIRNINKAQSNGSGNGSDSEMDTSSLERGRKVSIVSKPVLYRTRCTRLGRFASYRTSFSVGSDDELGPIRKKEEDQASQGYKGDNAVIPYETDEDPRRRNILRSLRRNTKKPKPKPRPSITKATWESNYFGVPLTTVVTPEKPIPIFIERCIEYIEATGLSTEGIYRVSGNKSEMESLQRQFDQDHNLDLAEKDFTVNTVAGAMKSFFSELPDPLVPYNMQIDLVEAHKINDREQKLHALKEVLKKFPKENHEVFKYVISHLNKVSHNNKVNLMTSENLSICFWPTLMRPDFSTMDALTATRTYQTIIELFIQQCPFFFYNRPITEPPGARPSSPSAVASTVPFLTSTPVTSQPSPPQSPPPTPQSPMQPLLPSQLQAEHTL
UniProt Q9NVE7: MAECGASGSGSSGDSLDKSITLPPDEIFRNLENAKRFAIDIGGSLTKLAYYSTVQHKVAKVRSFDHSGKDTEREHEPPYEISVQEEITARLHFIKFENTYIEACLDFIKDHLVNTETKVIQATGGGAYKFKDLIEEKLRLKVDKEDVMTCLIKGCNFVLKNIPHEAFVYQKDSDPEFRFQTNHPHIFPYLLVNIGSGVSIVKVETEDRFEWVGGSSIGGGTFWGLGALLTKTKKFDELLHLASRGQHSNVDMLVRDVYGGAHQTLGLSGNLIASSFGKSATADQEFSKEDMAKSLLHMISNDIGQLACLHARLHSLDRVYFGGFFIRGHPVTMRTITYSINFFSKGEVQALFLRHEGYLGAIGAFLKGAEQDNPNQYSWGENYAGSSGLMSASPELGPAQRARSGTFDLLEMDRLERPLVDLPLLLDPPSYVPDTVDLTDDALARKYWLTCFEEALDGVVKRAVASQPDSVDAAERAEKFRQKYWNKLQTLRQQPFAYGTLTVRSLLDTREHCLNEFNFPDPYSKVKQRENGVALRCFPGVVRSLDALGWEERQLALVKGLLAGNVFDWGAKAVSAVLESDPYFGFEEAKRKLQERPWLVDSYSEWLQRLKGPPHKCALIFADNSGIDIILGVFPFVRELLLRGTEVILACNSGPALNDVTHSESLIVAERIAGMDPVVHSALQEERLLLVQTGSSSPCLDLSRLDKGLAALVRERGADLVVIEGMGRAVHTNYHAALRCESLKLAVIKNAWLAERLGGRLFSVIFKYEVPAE
UniProt Q9NX08, whole entry: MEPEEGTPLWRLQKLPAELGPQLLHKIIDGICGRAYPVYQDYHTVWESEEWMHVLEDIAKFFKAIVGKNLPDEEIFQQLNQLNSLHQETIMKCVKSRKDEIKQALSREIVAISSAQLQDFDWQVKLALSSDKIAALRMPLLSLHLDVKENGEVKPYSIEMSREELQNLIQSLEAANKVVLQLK
UniProt Q9NRN7: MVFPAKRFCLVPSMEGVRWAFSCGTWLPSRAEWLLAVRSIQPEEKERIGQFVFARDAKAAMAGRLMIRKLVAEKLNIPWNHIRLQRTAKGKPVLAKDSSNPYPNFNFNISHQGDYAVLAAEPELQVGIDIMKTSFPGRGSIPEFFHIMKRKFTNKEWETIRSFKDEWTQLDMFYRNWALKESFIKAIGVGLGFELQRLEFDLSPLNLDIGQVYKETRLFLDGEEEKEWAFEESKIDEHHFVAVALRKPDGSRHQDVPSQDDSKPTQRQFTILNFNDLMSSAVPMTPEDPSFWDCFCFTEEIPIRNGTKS
UniProt Q9NVH2, whole entry: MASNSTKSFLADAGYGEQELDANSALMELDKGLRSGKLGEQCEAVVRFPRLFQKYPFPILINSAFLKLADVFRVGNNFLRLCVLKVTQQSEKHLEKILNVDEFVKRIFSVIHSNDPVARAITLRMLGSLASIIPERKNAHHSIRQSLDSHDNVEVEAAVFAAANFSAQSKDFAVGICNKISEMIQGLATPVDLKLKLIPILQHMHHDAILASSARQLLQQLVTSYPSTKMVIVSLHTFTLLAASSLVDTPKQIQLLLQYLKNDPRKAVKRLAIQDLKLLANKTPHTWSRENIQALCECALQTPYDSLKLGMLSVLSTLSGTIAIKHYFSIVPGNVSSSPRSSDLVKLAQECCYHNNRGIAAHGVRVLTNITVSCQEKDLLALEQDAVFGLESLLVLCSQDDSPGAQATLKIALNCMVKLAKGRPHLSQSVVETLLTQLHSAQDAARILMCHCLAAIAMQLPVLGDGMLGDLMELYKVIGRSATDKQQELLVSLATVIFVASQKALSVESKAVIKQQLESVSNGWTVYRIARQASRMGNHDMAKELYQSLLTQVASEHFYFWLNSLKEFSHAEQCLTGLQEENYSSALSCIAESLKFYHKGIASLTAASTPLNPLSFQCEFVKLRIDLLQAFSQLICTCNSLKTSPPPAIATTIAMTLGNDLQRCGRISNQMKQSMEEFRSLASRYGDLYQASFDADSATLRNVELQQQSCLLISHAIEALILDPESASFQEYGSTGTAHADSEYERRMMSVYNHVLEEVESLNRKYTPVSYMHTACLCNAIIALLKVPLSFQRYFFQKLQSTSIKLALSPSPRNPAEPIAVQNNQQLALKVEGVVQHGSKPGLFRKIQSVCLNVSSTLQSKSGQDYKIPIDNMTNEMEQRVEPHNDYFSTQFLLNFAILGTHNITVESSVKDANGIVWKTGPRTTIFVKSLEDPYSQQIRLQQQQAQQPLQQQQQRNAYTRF

Compound: Nc1ncnc2c1ncn2[C@@H]1O[C@H](COP(=O)(O)OP(=O)(O)OP(=O)(O)O)[C@@H](O)[C@H]1O [adenosine triphosphate]
Test: NP40-soluble protein abundance relative to vehicle (solubility fold change) (ratio); higher = more soluble protein in presence of ATP
How it was run: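 Across three independent experiments, values are fold changes against the detergent-processed vehicle for each replicate, based on vsn-normalised intensities. The samples were Jurkat crude lysate treated with eight concentrations (0.1 to 10 mM) for 10 min at room temperature and then 3 min at 37 °C. Lysate was solubilised with 0.8% NP40 and benzonase, ultracentrifuged, and the supernatant analysed by TMT-labelled LC-MS/MS.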

Target	NP40-soluble protein abundance (concentration: 0.1mM)	NP40-soluble protein abundance (concentration: 0.5mM)
CUTC (UniProt Q9NTM9)	1.03 ± 0.095	1.01 ± 0.066
UniProt Q9NUY8 and related entries	1 ± 0.061	1.01 ± 0.023
UniProt Q9NXK8 and related entries	1.05 ± 0.11	1.08 ± 0.065
NHP2 (UniProt Q9NX24)	0.984 ± 0.054	1.04 ± 0.15
EXOSC4 (UniProt Q9NPD3)	1.08 ± 0.067	1.09 ± 0.054
THUMPD1 (UniProt Q9NXG2)	0.915 ± 0.049	0.911 ± 0.091
UniProt Q9NPQ8 and related entries	0.995 ± 0.021	1.02 ± 0.016
UniProt Q9NW08 and related entries	1.03 ± 0.0066	1.02 ± 0.036
UniProt Q9NVK5-2	0.95 ± 0.1	0.926 ± 0.061
MED4 (UniProt Q9NPJ6)	0.953 ± 0.07	0.943 ± 0.038
ABCF3 (UniProt Q9NUQ8)	1.09 ± 0.019	1.11 ± 0.016
UniProt Q9NWR8	1.09 ± 0.065	1.1 ± 0.06
FBXO28 (UniProt Q9NVF7)	1.04 ± 0.025	1.11 ± 0.047
UniProt Q9NXH9 and related entries	1.03 ± 0.027	1.02 ± 0.012
THG1L (UniProt Q9NWX6)	1.09 ± 0.15	0.987 ± 0.21
GTSE1 (UniProt Q9NYZ3)	1.04 ± 0.1	0.939 ± 0.11
UniProt Q9NPA3	1.05 ± 0.14	0.909 ± 0.1
TMEM9B (UniProt Q9NQ34)	0.985 ± 0.054	0.9 ± 0.038
LYAR (UniProt Q9NX58)	0.945 ± 0.065	0.9368 ± 0.0049
CCDC59 (UniProt Q9P031)	0.928 ± 0.12	0.918 ± 0.11
MIOS (UniProt Q9NXC5)	1.11 ± 0.045	1.07 ± 0.032

Target	NP40-soluble protein abundance (concentration: 0.1mM)	NP40-soluble protein abundance (concentration: 0.5mM)
RTN4 (UniProt Q9NQC3)	0.966 ± 0.022	0.949 ± 0.03
UTP3 (UniProt Q9NQZ2)	0.971 ± 0.051	0.946 ± 0.05
CRIPT (UniProt Q9P021)	1.04 ± 0.16	1.06 ± 0.14
RBM12 (UniProt Q9NTZ6)	1.01 ± 0.021	0.985 ± 0.047
HPS4 (UniProt Q9NQG7)	1.11 ± 0.081	1.02 ± 0.036
POGK (UniProt Q9P215)	0.993 ± 0.063	1.02 ± 0.037
SACM1L (UniProt Q9NTJ5)	1.02 ± 0.061	1.04 ± 0.043
PDRG1 (UniProt Q9NUG6)	0.918 ± 0.097	0.956 ± 0.077
UniProt Q9NRL3 and related entries	1 ± 0.036	1.02 ± 0.027
COMMD9 (UniProt Q9P000)	0.95 ± 0.024	0.941 ± 0.03
UniProt Q9NVS9 and related entries	0.989 ± 0.011	0.989 ± 0.017
UniProt Q9NX04 and related entries	1.06 ± 0.059	1.16 ± 0.037
UniProt Q9NY93 and related entries	0.986 ± 0.046	1 ± 0.023
STARD7 (UniProt Q9NQZ5)	0.992 ± 0.011	0.932 ± 0.026
UniProt Q9NPH0 and related entries	1.08 ± 0.081	1.02 ± 0.2
UniProt Q9NUP1	0.892 ± 0.14	0.825 ± 0.13
UniProt Q9NUP9	0.948 ± 0.095	0.921 ± 0.08
UniProt Q9NRD1 and related entries	0.921 ± 0.17	0.948 ± 0.14
UniProt Q9NZT2 and related entries	0.9904 ± 0.0072	0.9528 ± 0.0077
UniProt Q9NQZ6 and related entries	0.87 ± 0.021	0.943 ± 0.13
UniProt Q9NRY4	1.02 ± 0.018	1.02 ± 0.037

Rewritten in CSV form: part of the list above.
Target,NP40-soluble protein abundance (concentration: 0.1mM),NP40-soluble protein abundance (concentration: 0.5mM)
CRIPT (UniProt Q9P021),1.04 ± 0.16,1.06 ± 0.14
UniProt Q9NRL3 and related entries,1 ± 0.036,1.02 ± 0.027

(listing goes on)

Target	NP40-soluble protein abundance (concentration: 0.1mM)	NP40-soluble protein abundance (concentration: 0.5mM)
UniProt Q9NRG7-2|Q9NRG7	0.927 ± 0.036	1.1 ± 0.07
EIF2B3 (UniProt Q9NR50)	1.04 ± 0.052	1.02 ± 0.035
DCP1A (UniProt Q9NPI6)	0.9902 ± 0.0042	1 ± 0.022
PANK4 (UniProt Q9NVE7)	1.04 ± 0.082	1.04 ± 0.12
UniProt Q9NVH1 and related entries	1.04 ± 0.05	1.02 ± 0.029
RBM28 (UniProt Q9NW13)	1.02 ± 0.0049	1.11 ± 0.02
KIF15 (UniProt Q9NS87)	1.02 ± 0.044	1.04 ± 0.083
TMOD3 (UniProt Q9NYL9)	0.957 ± 0.07	0.957 ± 0.036
UniProt Q9NPG3 and related entries	1.03 ± 0.1	1.06 ± 0.07
COMMD8 (UniProt Q9NX08)	0.998 ± 0.081	0.906 ± 0.15
UBP1 (UniProt Q9NZI7)	0.962 ± 0.021	0.996 ± 0.016
NUDT15 (UniProt Q9NV35)	0.9834 ± 0.0095	1.04 ± 0.071
SMARCAL1 (UniProt Q9NZC9)	1.03 ± 0.066	1.04 ± 0.037
TM7SF3 (UniProt Q9NS93)	1.02 ± 0.038	0.958 ± 0.02
UniProt Q9NPA8 and related entries	0.893 ± 0.12	0.963 ± 0.22
UniProt Q9NWV4	0.996 ± 0.039	0.99 ± 0.036
RAD18 (UniProt Q9NS91)	1.01 ± 0.028	1.1 ± 0.026
AASDHPPT (UniProt Q9NRN7)	1.05 ± 0.097	1.02 ± 0.088
UniProt Q9NVH2 and related entries	1.01 ± 0.071	0.998 ± 0.066
ABCB10 (UniProt Q9NRK6)	1.05 ± 0.058	1.04 ± 0.062
